Measurements as given in publication PMC8511327.

How the values were obtained:
Test in all cases: pull-down; GST-tagged N- or C-terminal parts of t-γ-TuRC proteins purified and immobilized on glutathione sepharose beads (bait), mixed with 35S-methionine-labelled IVTT prey proteins; autoradiography; only the target purified
[1] = target: GST-t-Grip84-N (GST-tagged N-terminal part of t-Grip84) (Drosophila melanogaster)
[2] = target: GST-t-Grip91-N (GST-tagged N-terminal part of t-Grip91) (Drosophila melanogaster)
[3] = target: GST-t-Grip128-C (GST-tagged C-terminal part of t-Grip128) (Drosophila melanogaster)

Measured: binding

B1: 35S-methionine-labelled full-length γ-Tub23C (IVTT prey) (protein, UniProt P23257 1-475)
chain: MPSEIITLQLGQCGNQIGFEFWKRLCLEHGISPSGVLEDFANDGLDRKDVFFYQADDDHYIPRAVLLDLEPRVINTIMGSVYSKLYNPENVYLSKHGGGAGNNWASGYSQGEKLQEEVFDIIDREADGSDSLEGFILCHSIAGGTGSGMGSFIMERLADRYPKKLIQTFSVFPNQDEISDVVVQPYNSMLTLKRLTTAADSVVVLDNTALNRIACDRLHIQNPSFSQINNLVSTIMSVSTTTLRYPSYMNNNLIGLTAPLIPTPQLHFLMTGYTPLTSDSDIHTQQLVNVRKTTVLDVMRRLLQPKNMMVSTGPDKSNHHCYISILNIIQGEVDPTQVHKSLQRIRDRKMAQFIPWGPTSIQVALSRSSPYVQSNHRVSGLMLANHTSICSLFERALNQYDKLRKRGAFLDQFRREDIFKDDLNELDESRETVDCLVQEYEAATREDYMQFSVKRGNGPVDSKSEDSRSVTSAGS
modifications: 35S-methionine-labelled
binds: all assays above

These are yes or no findings as the source states them, for the method shown. In cells and extracts the contact can be indirect. A result given as binding can be weak or reduced; the word gives no strength.
